This is one part of the list.

The term apparent Kd denotes the concentration giving half-maximal binding under the conditions of the assay.

To fix the notation:
B1: il2ra_site2_3nfp_sap_19_mot_HHH_b1_07095_000000265_0001_1_20_H_._HHH_b2_05069_0001_0000400052_0000001_0_0001 (protein)
chain: NEELVEEAIELAEELGDPEVAEVLEKLLREARETNDPELREAVAALAAAVHLDPEYAKEMASLYK
B2: il2ra_site1_1z92_normal_mot_922575b2e9738a49cb663a995786872c_0001_af2_000000234_0001_18_32_H_._09c2afe89fb4cbada1505b3a46965288_0001_af2_0001_0000100006_0000001 … (protein)
chain: GPEQELEELEEELGDPREAIRLLLEELEEESGDPELARQFLKIEIKRLFNVPPEEAERLLREAEK
B3: il2ra_site2_3nfp_normal_mot_HHH_b2_04451_000000238_0001_21_37_H_._HHH_b1_05252_af2_0001_0000300015_0000001_0 (protein)
chain: SSSSEEEELERLLREIRELLEEGDLYEALELLARVTELAARLNDEEVAREVLEIFEELQRLASSS
B4: il2ra_site1_3nfp_sap_11_mot_HHH_b1_00630_af2_000000193_0001_42_55_H_._9d49f0d3562fbcf9434e2f7f4344708e_0001_0001_0000100002_0000001_0_0001_af2pred_0001_af2pred (protein)
chain: SSSSDVIRRANELVKEISRLLKEGDPEKARELLRELEEIAKERNSPVAELLVRRLEELIEKSSSS
B5: il2ra_site2_2erj_sap_17_mot_HHH_b1_00839_000000020_0001_43_57_H_._HHH_b1_02339_0001_0000100004_0000001_0_0001 (protein)
chain: SSSSSEEEELEELLRLLEELRKEGDEERFEEVLHRAAHLAYQLNDFEVWAALAELARELLSSSSS
B6: il2ra_site1_2b5i_normal_mot_HHH_b2_04910_000000118_0001_1_19_H_._HHH_b2_06508_0001_0000100008_0000001_0 (protein)
chain: SSSSSAVEIFHEVDRLDREGNPEEALELLREAEELAREEGSRVLERIIESALRHLELELGSSSSS
B7: il2ra_site1_1z92_normal_mot_HHH_b2_07822_af2_000000141_0001_42_54_H_._HHH_b1_07952_0001_0002000089_0000001_0 (protein)
chain: SSSSDEKAEERAEFVFRNIELALENNNPKAAEAALELLEALARASNDPYAEELVEEAQELLSSSS
B8: il2ra_site2_2erj_sap_30_mot_HHH_b1_05749_af2_000000010_0001_23_39_H_._HHH_b2_00355_0001_0000200014_0000001_0_0001 (protein)
chain: SDVLELAQEVAKKDPRVLKLLWEIMRAAFNNDKEELKKLAEELKEIAEELGDPAVEELAEHFLRQ
B9: il2ra_site1_2b5i_normal_mot_HHH_b1_01934_af2_000000023_0001_42_56_H_._HHH_b1_06889_0001_0000200012_0000001_0_af2pred_dldesign_0_af2pred (protein)
chain: SSSSSAADDLAYEAFKRVSELLRAGRREEARALGEATIAELNALGAPDLAAELRRLLELYSSSSS
B10: il2ra_site1_1z92_sap_14_mot_HHH_b1_01250_000000104_0001_1_17_H_._HHH_b2_03882_af2_0001_0000200013_0000001_0_0001_af2pred_0001_af2pred_swapped (protein)
chain: SSSSDKDERNARILVRMAARVARLDEEQKKQLEEVAEELLERGLSFREIAEILAEVASELDSSSS
B11: il2ra_site1_1z92_normal_mot_54e474eed2d0515e81978198f0f96ec2_0001_000000202_0001_15_30_H_._8eb524b276bbb897fd8f0cca34c37a2d_0001_af2_0001_0000300018_0000001_0_a … (protein)
chain: DVEEEIEEALKELGVPPEEIKVVKRDFRLAREAGIPPEQVLRALINAARASGDEELTEALELVLK
B12: il2ra_site2_3nfp_normal_mot_HHH_b1_08005_000000161_0001_1_17_H_._HHH_b1_08075_0001_0000600026_0000001_0 (protein)
chain: SSSSDQSERYLQVAIELLEEALKEGDEEIFEQLLEWLKEAAELKGNEELEEQLQRLEEEFKSSSS
B13: il2ra_site2_2erj_sap_21_mot_HHH_b2_05264_af2_000000057_0001_44_57_H_._HHH_b2_00069_0001_0000600034_0000001_1_0001 (protein)
chain: SSSSDTEEMLEIALRLVRLAGNPELAEEIEELIEKYKKEGDPKYVREILKLFQEALEANDSSSSS
B14: il2ra_site2_2erj_sap_21_mot_HHH_b2_01204_af2_000000051_0001_19_34_H_._ems_3hM_591_0001_0000800033_0000001_0_0001 (protein)
chain: SSSSDEELEETLKELEEAAEKGDLERFSELLARAWELARELGDEEALLKIFELMRLIFENASSSS
B15: il2ra_site1_1z92_sap_10_mot_d8cfa582855fb05d91e09f57594ab115_0001_1_000000067_0001_37_51_H_._HEEHE_2450_0001_0000100007_0000001_0_0001 (protein)
chain: SSSSSEAERAFELIREIDEVIREGDEEEAKRLLEELRRLAEERNSPTMKRLLELLEEALEGSSSS
B16: il2ra_site1_1z92_sap_29_mot_HHH_b2_05274_af2_000000237_0001_23_40_H_._HHH_b1_05027_0001_0000100001_0000001_0_0001_af2pred_0001_af2pred_1_swapped (protein)
chain: SEVEKLVEEAVKLLVPSPKAREFLKKFLERAVEAGDKERVVKMLERFAKIAEDPEVERLAEEIEE
B17: il2ra_site1_2b5i_sap_18_mot_7e99ea63bd1fd31fd38892308a688dde_0001_1_af2_000000005_0001_35_49_H_._771ca5fb7044fd74913a74cac1256c5f_0001_0001_0000400028_0000001_0 … (protein)
chain: SSSSSDLVAEVERLIEEARRLAAAGRRREALELLEKAKKLADKADNEELIEKIEELAKELSSSSS
B18: il2ra_site1_3nfp_normal_mot_HHH_b1_01335_af2_000000105_0001_39_53_H_._HHH_b2_07269_af2_0001_0000300008_0000001_0_af2pred_0001_af2pred_swapped (protein)
chain: SSSSDVEERVEELLKQAKELAKEGDHREVDKLLREALQIASQNNNEELLRLIRKVMRELASSSSS
B19: il2ra_site2_3nfp_normal_mot_HHH_b1_05627_af2_000000038_0001_43_56_H_._HHH_b1_03413_af2_0001_0000600008_0000001_0 (protein)
chain: SSSSSKSEKYLRIALELAKLAEEEGDPESAREILEAALLAAESLNDEEIEEEVRRLLEEVSSSSS
B20: il2ra_site1_2b5i_sap_22_mot_ac211477d601265d37a31625d54e07f1_0001_1_af2_000000131_0001_18_32_H_._5c2e899aa23015d4f08a71d5b6a729c3_0001_0001_0000400032_0000001_0 … (protein)
chain: TRYLEMLERALRLGDPAARNAVKFLLRAAEEANDPELKREIKELLEEAAKLGNPIAEELLEELEK
B21: il2ra_site2_2erj_sap_23_mot_HHH_b1_04373_af2_000000118_0001_18_33_H_._HHH_b2_06074_0001_0000600022_0000001_0_0001 (protein)
chain: SSSSNEELHELYRLAEELIRARANGDEELVEKLIEEIERLAEKLQSDTTREMLEELKKQFSSSSS
B22: il2ra_site2_2erj_sap_24_mot_7b433bbe769c568a642d6e21c81e970f_0001_000000142_0001_36_50_H_._d0e8961964c3861271c3cee42b2d364a_0001_1_0001_0000500013_0000001_0_000 … (protein)
chain: SSSSSDEERLEEFVEELVEEFGLSEEQKEELEEAVKIALEAGASEEAIRLFLENRAREEGSSSSS
B23: il2ra_site1_3nfp_sap_9_mot_3e7f9dc7757c9be4a21a7eaad61dbf0f_0001_1_af2_000000290_0001_16_30_H_._095aa0115aa001b1004419c4ef159b4a_0001_0001_0000700037_0000001_0_ … (protein)
chain: SSSSSDRLREFQRLAKEALKIEDREELEEVLEELEKIAEERNDPIAKELVERLRRKAEELSSSSS
B24: il2ra_site1_2b5i_sap_9_mot_HHH_b1_06833_000000178_0001_1_19_H_._69c0e03702be80a53d24f68cf15becc8_0001_0001_0000100006_0000001_0_0001_af2pred_dldesign_0_af2pred (protein)
chain: SSSSSDEEVIARAKALAEEALKKATSPKDKKIVEWGLEELDETKDPQVARQLLDFVERLLKSSSS

In the test the target is il2ra, P01589. Put plainly: yeast display titration.
With B1, the “apparent Kd” value was “inactive: no binding seen”.
Regarding B2, the “apparent Kd” value was “inactive: no binding seen”.
B3: the “apparent Kd” value is “inactive: no binding seen”.
Next, B4: “inactive: no binding seen”; B5: “inactive: no binding seen”; B6: “inactive: no binding seen”.
On to B7, for which the “apparent Kd” value was “inactive: no binding seen”.
Next, B8: “inactive: no binding seen”; B9: “inactive: no binding seen”; B10: “inactive: no binding seen”.
Turning to B11, the “apparent Kd” value is “inactive: no binding seen”.
As for B12, the entry is “inactive: no binding seen”; as for B13, “inactive: no binding seen”; as for B14, “inactive: no binding seen”.
As for B15, the entry is “inactive: no binding seen”.
For the molecule B16, the “apparent Kd” value is “inactive: no binding seen”.
As for B17, the “apparent Kd” value is “inactive: no binding seen”.
B18: the “apparent Kd” value was “inactive: no binding seen”.
With B19, the “apparent Kd” value was “inactive: no binding seen”.
As for B20, the entry is “inactive: no binding seen”; as for B21, “inactive: no binding seen”.
On to B22, for which the apparent Kd was inactive: > 555 nM.
As for B23, the entry is “inactive: no binding seen”; as for B24, “inactive: no binding seen”.
